## Percent effect of library compounds

Measurements from “University of Dundee, Small-Polar-MMV Screening Library” (2021), ChEMBL document CHEMBL3988442.

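Assay of Toxoplasma gondii numbers, read through their beta-galactosidase reporter with a colour substrate. Concentration: 10 µM. Higher reads as fewer parasites (inferred from which compounds were picked for retests). About 67,000 compounds were tested under these conditions; 0.38% (about 260) showed 50% or more at least once.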

The filed quantity is “Percent Effect” (%).
The record does not define 0% and 100%; most values in the screen are far below 50% and negative numbers occur (in some assays of this library far below -100).
Compounds were drawn at random from those tested, without regard to their results.

compound	percent effect
COCCn1cnnc1CCNc1cc(C)nc2ccnn12	-4.994%
Cc1nc(C2CCCCN2C(=O)c2ccccc2)ncc1C(=O)N(C)C (stereo not shown)	-5.38%
CCC(C)c1noc(C2CCN(C(=O)c3cccs3)CC2)n1 (stereo not shown)	8.629%
CCOC1COC2(CCN(CC3CC3)CC2)C1.O=C(O)C(F)(F)F (stereo not shown)	6.304%
COCCOCc1cccc(NC(=O)N2CCCC2c2ccncc2)c1 (stereo not shown)	-1.477%
CCc1ocnc1C(=O)N1CCCC1c1noc(C2CC2)n1 (stereo not shown)	-3.865%
CC(C)C(=O)NCc1ccc(N2CCCC2)nc1	11.74%
Cc1nc2c(c(NC3CCN(Cc4cccnc4)CC3)n1)CCNCC2	5.804%
COCC(=O)N1CCc2nc(C)nc(NC(C)C)c2CC1	-15.17%
O=C(O)C(F)(F)F.O=C(O)C(F)(F)F.O=C(O)C(F)(F)F.[H][C@]12C[C@H](C(=O)NCC3CC3)N(C)[C@@]1([H])CN(Cc1csc(C)n1)C2	-18.88%
CC1CCCN(C(=O)c2occc2COc2cccc(C#N)c2)C1 (stereo not shown)	1.444%
O=C(Cn1cccc2oc(=O)nc1-2)NCC1Cc2ccccc2O1 (stereo not shown)	-12.19%
Cc1nn(C)c2nc(NC(C)c3n[nH]c(=O)[nH]3)sc12 (stereo not shown)	-17.06%
CC(=O)N1CCC(C(=O)Nc2nnc(C(F)(F)F)[nH]2)CC1	0.8323%
CC(C)c1nc(CN(C)Cc2ccc(F)cc2)cs1	-16.43%
[H][C@@]12C[C@@H](OC)C[C@]1([H])CN(C(=O)Cc1ccc(C)s1)C2	-8.779%
CCOCC(=O)NCC(Cc1cccc(F)c1)n1cccc1 (stereo not shown)	-4.891%
CCSc1cc(C(=O)N(CC(F)F)C(C)C)ccn1	-0.7234%
Cc1cc(C(=O)Nc2nnn[nH]2)ccc1I	-5.699%
Cc1ccc(OCC(=O)Nc2cnccc2SCCCO)cc1C	2.773%
COCCN(CCOC)C(=O)c1ccn(-c2ccc3ccccn23)n1	-10.4%
C[S+]([O-])c1ccc(CNc2ccc(F)cc2OC(F)F)cc1 (stereo not shown)	0.885%
Cc1nn(C)c2nc(NCCOCCO)sc12	-0.5461%
Cc1ccccc1CS(=O)(=O)Cc1nc(C2CC2)no1	-7.324%
Cn1nc(Cn2ccnc2)c2c1CN(C(=O)c1ccc[nH]1)C2	1.619%
Cc1nc(CN2CCCN(CC(=O)Nc3ccncc3)CC2)no1	1.621%
CC(CC(=O)c1ccccc1)NC(=O)c1ccon1 (stereo not shown)	6.158%
O=C(NCc1nnc2n1CCCC2)c1cn(-c2ccccc2)nn1	16.32%
[H][C@@]12CCN(Cc3ccoc3)C[C@@]1([H])O[C@H](C(=O)NC)C2	-22.4%
CCC(CC)NC(=O)c1cncc(Br)c1	0.4619%
Cc1cc(CC(=O)N(CC2CN(C)CCO2)c2nccs2)no1 (stereo not shown)	1.292%
CC(C)(C)c1coc([C@@H]2COCCN2Cc2c[nH]c3ccccc23)n1	24.81%
CCC(=O)N1CCN(C(=O)NCc2c(C)cc(C)cc2C)CC1	1.193%
COc1cc2cc3c(nc2cc1OC)OCCN(Cc1ccco1)C3	-11.56%
Cc1ccc(N(CCC#N)C(=O)CN2CCCC2c2cccs2)cc1 (stereo not shown)	10.64%
CCc1nc(C2CCCN2Cc2nnc(C3CCC3)o2)no1 (stereo not shown)	-0.8178%
[H][C@@]12CC(=O)N(C)[C@@]1([H])CCN2S(=O)(=O)Cc1ccc(C)cc1	4.66%
COc1c(C(=O)N2CCNC(=O)C2)cnc2c1c(C)nn2C	0.4571%
Cc1oncc1C(=O)N1CCC2(CC1)CC(N1CCOCC1)C2.O=C(O)C(F)(F)F	-12.17%
O=C(O)c1cc(S(=O)(=O)N2CCOc3ccccc32)ccc1Br	-1.8%
O=C(NCc1ccccc1Cn1cncn1)C1CCCC1	-0.4697%
CCOc1cncc(N(C)CC(=O)NC)n1	8.804%
Cc1ccccc1-c1cc(C(=O)NCCN2CCCS2(=O)=O)[nH]n1	-13.16%
COCCN1C2(CCN(CC3CC3)C2)c2ccccc2S1(=O)=O.O=C(O)C(F)(F)F (stereo not shown)	12.45%
COc1c(C)cnc(CN2CCOC(Cn3cc(C)cn3)C2)c1C (stereo not shown)	4.354%
FC(F)(F)c1ccnc(N2CCCOCC2)c1	4.176%
CN(C)CCCNC(=O)c1ccc(N(C)S(C)(=O)=O)cc1Cl	6.418%
CNc1cc(-c2nc(CCN3CCCC3=O)no2)ccn1	-3.796%
COc1cc(C(=O)Nc2cn[nH]c2)ccc1C	13.23%
Cc1ccccc1C1CCN(CCn2cc(-c3nccs3)nn2)C1 (stereo not shown)	2.775%
COC(=O)c1cc(C(=O)N2CCOCC2(C)C)n(-c2ccccc2)n1	0%
Cc1cccc(CN2C(=O)CCC23CCN(Cc2nccn2C)CC3)n1	5.965%
Cc1cnc(C(=O)N2CCC3(CC2)CN(c2ccccn2)CCO3)cn1	-6.294%
O=C(C1CSc2ccccc2O1)N1CCN(CCO)CC1 (stereo not shown)	3.95%
CC(CC(=O)Nc1ccc(C(=O)N(C)C)c(Cl)c1)n1cccc1 (stereo not shown)	3.184%
O=C(NCC1(O)CCOc2ccccc21)Nc1ccc2c(c1)OCO2 (stereo not shown)	-13.07%
COc1cccc(Cn2ncnc2CNC(C)=O)c1	-0.2187%
[H][C@@]12OCCN(C(=O)CC3=CCCCC3)[C@@]1([H])CC[C@@H]2OC	5.488%
Cc1ccnc(NC(=O)c2c(C)oc(C)c2C)c1	-4.4%
Cn1cnnc1C1CCCN(C(=O)c2cc(Cl)cc(Cl)c2)C1 (stereo not shown)	22.43%
Cc1ccc2nc(CNCCCN3CCCC3)cc(O)c2c1	-0.02959%
CC(C)c1noc(C2CCN(S(=O)(=O)c3cccs3)CC2)n1	24.6%
NC(=O)c1ccc(OCCC(=O)NC2CCc3c(F)cccc32)cc1 (stereo not shown)	-1.598%
CNc1ncc(C(=O)N2CCOC(C(=O)N3CCCCCC3)C2)cn1 (stereo not shown)	27.54%
O=C(CCCc1cn[nH]c1)N1C[C@@H](CN2CCCCCC2)[C@@H](CO)C1	-0.05764%
CC(NC(=O)Nc1ccc(F)c(F)c1)c1nc[nH]n1 (stereo not shown)	-3.304%
Cc1nc(NC(=O)CNC(=O)c2c(F)cccc2Cl)n[nH]1	1.76%
c1cnc(N2CCN(CCn3ccnc3-c3c[nH]cn3)CC2)nc1	15.48%
O=C(NCCN1CCOCC1)c1cc2c(s1)CCN2Cc1cccnc1	-1.323%
CCc1ccccc1N1CC(c2nnc(N)s2)CC1=O (stereo not shown)	1.007%
CC(C)Nc1cccc(C(=O)NCC(O)c2cccc(F)c2)c1 (stereo not shown)	-20.16%

Some entries from above, unchanged:

With O=C(NCCN1CCOCC1)c1cc2c(s1)CCN2Cc1cccnc1 the screen gave -1.323%.
With CN(C)CCCNC(=O)c1ccc(N(C)S(C)(=O)=O)cc1Cl the screen gave 6.418%.
With CC(CC(=O)Nc1ccc(C(=O)N(C)C)c(Cl)c1)n1cccc1 (stereo not shown) the screen gave 3.184%.
With [H][C@@]12CC(=O)N(C)[C@@]1([H])CCN2S(=O)(=O)Cc1ccc(C)cc1 the screen gave 4.66%.
With COCCN1C2(CCN(CC3CC3)C2)c2ccccc2S1(=O)=O.O=C(O)C(F)(F)F (stereo not shown) the screen gave 12.45%.